Test results from PubChem BioAssay (NCATS).
The inconclusive results got no clear call from the source; some entries with a clear call stand among them for comparison. Where the call is inconclusive, the potency comes from a doubtful curve fit. Activity calls are given as the source filed them. Calls come from the whole dose curve; as a rule, active = well fitted cell-killing curve with a large enough effect; inconclusive = small, poorly fitted or top-dose-only effect, or effect the other way; inactive = no such curve, though single readings can be large or run the other way.

Assay: Quantitative High-Throughput drug screen in 47 multiple myeloma cell lines against the NCATS MIPE library collection: H1112_PLB cell viability assay (AID 1918967; note: nearly all actives have a fitted effect of over 30% in size)
Conditions: H1112 myeloma cells viability, ATP luminescence, 48 h; series mostly up to 45.8 µM
In short: (§1)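 Luminescent ATP measurement with CellTiter-Glo gives viability, scaled between DMSO-only wells (100%) and media-only wells (0%). Cells, 500 per well, faced library compounds for 48 hours at 37C.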
Potency is the fitted concentration of half-maximal effect.

| Compound | Potency |
| --- | --- |
| CC(C)(Sc1ccc(CCN(CCCCC2CCCCC2)C(=O)NC2CCCCC2)cc1)C(=O)O | inactive |
| O=C(O)c1ccc(O)c2ncc(N3CCOCC3)cc12 | inconclusive: 26.4 µM [cytotoxic, partial curve] |
| CCNC(=O)Nc1ccc(Oc2ncnc(N)c2C=NOC)cc1Cl | inactive |
| c1ccc([C@H]2CN3CCSC3=N2)cc1 | inconclusive: 37.2 µM [cytotoxic, single point] |
| Cc1cc(OCCCS(C)(=O)=O)cc(C)c1-c1cccc(COc2ccc3c(c2)OC[C@H]3CC(=O)O)c1 | active: 20.9 µM |
| C[C@]12CCC(=O)C=C1CC[C@@H]1[C@H]2[C@@H](O)C[C@@]2(C)[C@H]1CC[C@]2(O)C(=O)CO | inconclusive: 0.0074 µM [rising, full curve, poor fit] |
| NCCCC(N)(C(=O)O)C(F)F (centres undefined) | inconclusive: 0.0235 µM [rising, full curve, poor fit] |
| CC(=O)NCCC(=O)N[C@@H](CCC(N)=O)C(=O)N[C@@H](CO)C(=O)N[C@@H](CCC(N)=O)C(=O)N[C@@H](CCC(N)=O)C(=O)N[C@H](C(=O)N[C@@H](Cc1ccccc1)C(=O)N[C@]1(C)CCCCCCC=CCCC[C@@](C)(C(=O)N[C@@H](CCC(N)=O)C(=O)N[C@@H](CC(N)=O)C(N)=O)NC(=O)[C@H](CC(C)C)NC(=O)[C@H](CC(C)C)NC(=O)[C@@H](CCCNC(=N)N)NC(=O)[C@H](Cc2c[nH]c3ccccc23)NC(=O)[C@H](CC(C)C)NC(=O)[C@H](CC(N)=O)NC1=O)[C@H](C)O | inconclusive: 26.4 µM [cytotoxic, single point] |
| NC(=O)c1cnccn1 | inconclusive: 0.0148 µM [rising, full curve, poor fit] |

Assay: Quantitative High-Throughput drug screen in 47 multiple myeloma cell lines against the NCATS MIPE library collection: Karpas25_ECACC cell viability assay (AID 1918968; note: nearly all actives have a fitted effect of over 35% in size)
Conditions: Karpas25 myeloma viability, CellTiter-Glo ATP, 48 h; series mostly up to 45.8 µM
In short: as §1

| Compound | Potency |
| --- | --- |
| COc1cc(-c2nn(C3CCC(N4CCN(C(C)=O)CC4)CC3)c3ncnc(N)c23)ccc1NC(=O)c1cc2ccccc2n1C (centres undefined) | inconclusive: 0.59 µM [cytotoxic, partial curve, poor fit] |
| Fc1ccc(Cl)cc1-c1nc(Nc2ccncc2)c2nccnc2n1 | inconclusive: 18.7 µM [cytotoxic, partial curve, poor fit] |
| CCNC(=O)Nc1ccc(Oc2ncnc(N)c2C=NOC)cc1Cl | inconclusive: 9.35 µM [cytotoxic, partial curve] |
| c1ccc([C@H]2CN3CCSC3=N2)cc1 | inactive |
| Cc1ccc(-c2ncn(-c3ccc(Nc4nccc(-c5cccc(N6CCOCC6)c5)n4)cc3)n2)cn1 | active: 0.0833 µM |
| Cc1cc(OCCCS(C)(=O)=O)cc(C)c1-c1cccc(COc2ccc3c(c2)OC[C@H]3CC(=O)O)c1 | inconclusive: 13.2 µM [cytotoxic, partial curve] |
| CC1CNc2c(cccc2S(=O)(=O)N[C@@H](CCCN=C(N)N)C(=O)N2CC[C@@H](C)C[C@@H]2C(=O)O)C1 (some centres undefined) | inactive |
| O=C1CCC(N2C(=O)c3ccccc3C2=O)C(=O)N1 (centres undefined) | inactive |
| Cc1cccc(N(C)C(=S)Oc2ccc3ccccc3c2)c1 | inconclusive: 20.9 µM [cytotoxic, partial curve] |
| N#CC[C@H](C1CCCC1)n1cc(-c2ncnc3[nH]ccc23)cn1 | inconclusive: 16.6 µM [cytotoxic, partial curve] |
| NCCCC(N)(C(=O)O)C(F)F (centres undefined) | active: 0.166 µM |
| CC(=O)NCCC(=O)N[C@@H](CCC(N)=O)C(=O)N[C@@H](CO)C(=O)N[C@@H](CCC(N)=O)C(=O)N[C@@H](CCC(N)=O)C(=O)N[C@H](C(=O)N[C@@H](Cc1ccccc1)C(=O)N[C@]1(C)CCCCCCC=CCCC[C@@](C)(C(=O)N[C@@H](CCC(N)=O)C(=O)N[C@@H](CC(N)=O)C(N)=O)NC(=O)[C@H](CC(C)C)NC(=O)[C@H](CC(C)C)NC(=O)[C@@H](CCCNC(=N)N)NC(=O)[C@H](Cc2c[nH]c3ccccc23)NC(=O)[C@H](CC(C)C)NC(=O)[C@H](CC(N)=O)NC1=O)[C@H](C)O | active: 26.4 µM |
| CC(C)NC[C@@H](C(=O)N1CCN(c2ncnc3c2[C@H](C)C[C@H]3O)CC1)c1ccc(Cl)cc1 | active: 0.469 µM |
| NC(=O)c1cnccn1 | inactive |
| FC(F)c1nc2ccccc2n1-c1nc(N2CCOCC2)nc(N2CCOCC2)n1 | active: 0.0935 µM |
